These are yes or no findings as the source states them, for the method shown. Binding seen in cells or lysates may run through a third protein. A result given as binding can be weak or reduced; the word gives no strength. Where a sequence is shown, tags or fusion partners need not be part of it.
Target: KSR2-Myc
Test: co-IP; lysates of U87MG cells transiently expressing Flag-praja2 and KSR2-Myc; immunoprecipitation with anti-Myc antibody (IgG as control); immunoblot for Flag, KSR2-Myc and AMPKα1

B1: Flag-praja2 (enzyme, UniProt O43164 1-708)
chain: MSQYTEKEPAAMDQESGKAVWPKPAGGYQTITGRRYGRRHAYVSFKPCMTRHERSLGRAGDDYEVLELDDVPKENSSGSSPLDQVDSSLPSEPIFEKSETEIPTCGSALNQTTESSQSFVAVHHSEEGRDTLGSSTNLHNHSEGEYIPGACSASSVQNGIALVHTDSYDPDGKHGEDNDHLQLSAEVVEGSRYQESLGNTVFELENREAEAYTGLSPPVPSFNCEVRDEFEELDSVPLVKSSAGDTEFVHQNSQEIQRSSQDEMVSTKQQNNTSQERQTEHSPEDAACGPGHICSEQNTNDREKNHGSSPEQVVRPKVRKLISSSQVDQETGFNRHEAKQRSVQRWREALEVEESGSDDLLIKCEEYDGEHDCMFLDPPYSRVITQRETENNQMTSESGATAGRQEVDNTFWNGCGDYYQLYDKDEDSSECSDGEWSASLPHRFSGTEKDQSSSDESWETLPGKDENEPELQSDSSGPEEENQELSLQEGEQTSLEEGEIPWLQYNEVNESSSDEGNEPANEFAQPAFMLDGNNNLEDDSSVSEDLDVDWSLFDGFADGLGVAEAISYVDPQFLTYMALEERLAQAMETALAHLESLAVDVEVANPPASKESIDGLPETLVLEDHTAIGQEQCCPICCSEYIKDDIATELPCHHFFHKPCVSIWLQKSGTCPVCRRHFPPAVIEASAAPSSEPDPDAPPSNDSIAEAP
B1 was tested, and the binding was “binds”.

From paper PMC9345969
